This experiment relates to BDF1 mice, P388 leukemia ip, median survival T/C. In words: NCI In Vivo Anticancer Drug Screen. Data for tumor model P388 Leukemia (intraperitoneal) in B6D2F1 (BDF1) mice. The settings on record: T/C endpoint: median survival time, higher T/C = longer survival. Put shortly:
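Mice carrying the transplantable tumour receive compound or vehicle. Survival is followed in each arm, and the treated measure is divided by the vehicle measure.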

Setting [1] is: dose: 50.0 mg/kg/injection, schedule: Q04DX003 (ip), vehicle: saline.
Setting [2] is: dose: 100.0 mg/kg/injection, schedule: Q04DX003 (ip), vehicle: saline.
Where [3] appears, read: dose: 200.0 mg/kg/injection, schedule: Q04DX003 (ip), vehicle: saline.
Setting [4] is: dose: 200.0 mg/kg/injection, schedule: Q01DX009 (ip), vehicle: saline.
Setting [5] is: dose: 100.0 mg/kg/injection, schedule: Q01DX009 (ip), vehicle: Klucel (hydroxypropylcellulose) (HPC).
The mark [6] stands for this setting: dose: 50.0 mg/kg/injection, schedule: Q01DX009 (ip), vehicle: saline.
Setting [7] is: dose: 100.0 mg/kg/injection, schedule: Q01DX009 (ip), vehicle: saline.
[8] abbreviates: dose: 25.0 mg/kg/injection, schedule: Q01DX009 (ip), vehicle: saline.

The list is a part of this screen's results and no random one: it gathers tests that were run many times, whatever their T/C, doses with no T/C, and many T/C values between a quarter and a half above the control. Other doses and runs of a compound stand elsewhere. T/C gives the treated animals as a percentage of the vehicle group. Some doses have a count of surviving animals in place of a T/C: the source holds a T/C of zero for them, seemingly a mark for toxic or unscored doses. Some survivor counts are full or nearly so, which does not show that the dose was tolerated: the source hardly ever lists a survival T/C far under the control, and the zero likely stands for such cases as well. Survivors were counted at the toxicity check, usually on the fifth day, unless a day is given; later deaths do not show. Schedule codes are those of the source, read here as Q, the interval in days (D) or hours (H), X, the number of doses. Where survival is the endpoint, the PubChem record calls one and a half times the control and up active, and a quarter to a half above the control has no call in these data; cut-offs in other NCI protocols can differ. Some T/C values are followed by the survivors on the day toxicity was checked, most often the fifth; where none is given, no animal had died by that day. Some entries were tested several times; the values are given in rising order.

For the compound `Cn1cnc([N+](=O)[O-])c1Sc1nc(N)nc2c1ncn2C1OC(CO)C(O)C1O` (stereo not given), the T/C is 141 % of control (dose: 9.2 mg/kg/injection, schedule: Q01DX009 (ip), vehicle: saline); 145 % of control (dose: 10.0 mg/kg/injection, schedule: Q04DX003 (ip), vehicle: saline); 140 and 141 % of control (dose: 14.06 mg/kg/injection, schedule: Q01DX009 (ip), vehicle: saline); 140 % of control (dose: 21.0 mg/kg/injection, schedule: Q01DX009 (ip), vehicle: saline); 140 % of control (dose: 25.0 mg/kg/injection, schedule: Q04DX003 (ip), vehicle: saline); 125 % of control [5 of 6 alive] (dose: 28.12 mg/kg/injection, schedule: Q01DX009 (ip), vehicle: saline). Besides, the T/C runs as follows: under setting [1], 140 % of control; under setting [2], 131 % of control. For the same compound, the survivor count by setting is: (dose: 112.5 mg/kg/injection, schedule: Q01DX009 (ip), vehicle: saline) 6 of 6; (dose: 225.0 mg/kg/injection, schedule: Q01DX009 (ip), vehicle: saline) 6 of 6; (dose: 225.0 mg/kg/injection, schedule: Q04DX003 (ip), vehicle: saline) 6 of 6; (dose: 335.0 mg/kg/injection, schedule: Q04DX003 (ip), vehicle: saline) 6 of 6.

In the case of `CCCCOCN1COCC1(C)C`, under setting [3], the T/C is 140 % of control.

In the case of `Cc1cc2c(c(O)c1-c1c(C)cc(O)c3c1C(=O)C=CC3=O)C(=O)C=CC2=O`, the survivor count (dose: 10.0 mg/kg/injection, schedule: Q01DX009 (ip), vehicle: saline with Tween-80) was 1 of 6.

With `COC(=O)c1ccc(CSc2ccccc2NC(=S)Nc2cccc(C(F)(F)F)c2)o1`, the survivor count is 6 of 6 (dose: 50.0 mg/kg/injection, schedule: Q01DX009 (ip), vehicle: saline with Tween-80) and 6 of 6 (dose: 100.0 mg/kg/injection, schedule: Q01DX009 (ip), vehicle: saline with Tween-80).

Regarding `O=C1N(Cl)C(=O)C(c2ccc(Cl)cc2)(c2ccc(Cl)cc2)N1Cl`, the T/C is 140 % of control (dose: 50.0 mg/kg/injection, schedule: Q04DX003 (ip), vehicle: saline with Tween-80); 133 % of control (dose: 58.0 mg/kg/injection, schedule: Q04DX003 (ip), vehicle: saline with Tween-80); 129 % of control (dose: 88.0 mg/kg/injection, schedule: Q01DX009 (ip), vehicle: Klucel (hydroxypropylcellulose) (HPC)); 133 % of control (dose: 88.0 mg/kg/injection, schedule: Q02DX005 (ip), vehicle: Klucel (hydroxypropylcellulose) (HPC)); 141 % of control (dose: 88.0 mg/kg/injection, schedule: Q04DX003 (ip), vehicle: saline with Tween-80); 128 % of control (dose: 120.0 mg/kg/injection, schedule: Q04DX003 (ip), vehicle: Klucel (hydroxypropylcellulose) (HPC)). For the same compound, the T/C (dose: 132.0 mg/kg/injection, schedule: Q01DX009 (ip), vehicle: Klucel (hydroxypropylcellulose) (HPC)) is 127 % of control; the T/C (dose: 132.0 mg/kg/injection, schedule: Q04DX003 (ip), vehicle: saline with Tween-80) is 145 % of control; the T/C (dose: 200.0 mg/kg/injection, schedule: Q04DX003 (ip), vehicle: saline with Tween-80) is 139, 145, 158 [5 of 6 alive], 168 % of control; the T/C (dose: 240.0 mg/kg/injection, schedule: Q04DX003 (ip), vehicle: Klucel (hydroxypropylcellulose) (HPC)) is 142 % of control; the T/C (dose: 400.0 mg/kg/injection, schedule: Q04DX003 (ip), vehicle: saline with Tween-80) was 127 % of control [4 of 6 alive].

In the case of `NC(CSCc1ccccc1)CSCc1ccccc1`, the T/C (dose: 6.25 mg/kg/injection, schedule: Q04DX003 (ip), vehicle: saline) was 149 % of control. Also, the survivor count was 3 of 6 under setting [1]; 4 of 6 under setting [2]; 3 of 6 under setting [4]; 3 of 6 under setting [3]; 2 of 6 (dose: 400.0 mg/kg/injection, schedule: Q04DX003 (ip), vehicle: saline).

Regarding `C/C(CC(=O)O)=C(\C)C(=O)O`, the survivor count (dose: 200.0 mg/kg/injection, schedule: Q04DX003 (ip), vehicle: water) is 4 of 6 and the survivor count (dose: 400.0 mg/kg/injection, schedule: Q04DX003 (ip), vehicle: water) is 2 of 6.

`O=C1C=C(Cl)C(=O)C2=C1CCCC2`: the survivor count is, setting by setting: (dose: 3.13 mg/kg/injection, schedule: Q04DX002 (ip), vehicle: saline with Tween-80) 2 of 6; (dose: 6.25 mg/kg/injection, schedule: Q04DX002 (ip), vehicle: saline with Tween-80) 1 of 6.

For the compound `CN(C)c1ccc(C(=O)O)cn1`, under “dose: 400.0 mg/kg/injection, schedule: Q01DX009 (ip), vehicle: saline”, the T/C is 129 % of control.

As to `C[C@]12CC[C@H]3[C@@H](CC[C@]4(O)C[C@@H](O)CC[C@]34C=O)[C@@]1(O)CC[C@@H]2C1=CC(=O)OC1`, the survivor count is, setting by setting: (dose: 50.0 mg/kg/injection, schedule: Q01DX010 (ip), vehicle: carboxymethylcellulose (CMC)) 3 of 6; under setting [5], 3 of 6. For the same compound, the T/C (dose: 200.0 mg/kg/injection, schedule: Q01DX009 (ip), vehicle: Klucel (hydroxypropylcellulose) (HPC)) is 130 % of control [5 of 6 alive].

Regarding `CC(C)OC(=O)Nc1ccccc1Cl`, the survivor count is, setting by setting: under setting [2], 5 of 6; under setting [3], 6 of 6.

`OCC(I)C(CO)[n+]1ccccc1` (stereo not given): under setting [6], the survivor count is on record as 3 of 6.

Consider `Cc1ccc(C(=S)NC(=O)Nc2ccccc2)cc1`, for which, for the setting “dose: 400.0 mg/kg/injection, schedule: Q01DX001 (ip), vehicle: saline with Tween-80”, the survivor count is 6 of 6.

As to `O=C(NC(CSC(c1ccccc1)(c1ccccc1)c1ccccc1)C(=O)O)OCc1ccccc1` (stereo not given), the T/C is, setting by setting: under setting [7], 125 % of control; under setting [4], 130 % of control.

For the compound `Nc1ccc(N=Nc2ccccc2)c(N)n1`, where the note is “dose: 200.0 mg/kg/injection, schedule: Q04DX003 (ip), vehicle: Klucel (hydroxypropylcellulose) (HPC)”, the survivor count is 3 of 6.

In the case of `C=C(C)C12OC3(c4ccccc4)OC1C1C4OC4(CO)C(O)C4(O)C(=O)C(C)=CC4C1(O3)C(C)C2OC(=O)c1ccccc1` (stereo not given), the T/C is 127 % of control (dose: 25.0 micrograms/kg/injection, schedule: Q01DX009 (ip), vehicle: saline + alcohol); 134 % of control (dose: 50.0 micrograms/kg/injection, schedule: Q01DX009 (ip), vehicle: saline + alcohol); 144 % of control (dose: 100.0 micrograms/kg/injection, schedule: Q01DX009 (ip), vehicle: saline + alcohol).

On to `COc1cc2c(c(OC)c1OC)-c1ccc(OC)c(=O)cc1[C@@H](NC(=O)c1ccccc1)CC2`, for which, under “dose: 0.25 mg/kg/injection, schedule: Q01DX009 (ip), vehicle: saline sonified”, the T/C was 137 and 140 % of control. Further, the survivor count is given as 3 of 6 (dose: 4.0 mg/kg/injection, schedule: Q01DX009 (ip), vehicle: saline sonified); 4 of 6 (dose: 8.0 mg/kg/injection, schedule: Q01DX009 (ip), vehicle: saline sonified); 6 of 6 (dose: 9.0 mg/kg/injection, schedule: Q01DX009 (ip), vehicle: saline sonified); 6 of 6 (dose: 12.0 mg/kg/injection, schedule: Q01DX009 (ip), vehicle: saline sonified).

Regarding `C1=C(c2ccccc2)CS1`, the survivor count (dose: 100.0 mg/kg/injection, schedule: Q01DX001 (ip), vehicle: saline with Tween-80) was 2 of 6.

In the case of `CC(C)=CCC/C(C)=C/CNCCc1c[nH]c2ccccc12`, the T/C runs as follows: (dose: 12.5 mg/kg/injection, schedule: Q01DX009 (ip), vehicle: Klucel (hydroxypropylcellulose) (HPC)) 130 % of control; (dose: 25.0 mg/kg/injection, schedule: Q01DX009 (ip), vehicle: Klucel (hydroxypropylcellulose) (HPC)) 127 % of control. Further, under setting [5], the survivor count is recorded as 1 of 6.

`NCCS(=O)(=O)O`: the T/C is, setting by setting: under setting [8], 127 % of control; under setting [7], 131 % of control. In addition, the survivor count was 6 of 6 under setting [8] and 6 of 6 under setting [4].

For the compound `NS(=O)(=O)O`, the survivor count under setting [6] is reported as 6 of 6.

Values taken from PubChem BioAssay AID328 (DTP/NCI, 2004).
